Binding data for one molecule are collected here from paper PMC7053243.

No constants are given. Whether binding was seen depends on the method and setting. Binding seen in cells or lysates may run through a third protein. Binding calls can cover weak binding; strength is not graded here.

The target in the assay is calmodulin (CaM), endogenous in quail embryo fibroblasts (quail (endogenous in QEF)). In words: co-IP.

B1: brain acid-soluble protein 1 (BASP1), ectopic, wild type (protein, UniProt P23614 1-244)
chain: MGGKLSKKKKGYSVNDEKAKDKDKKAEGAATEEEETPKEAEDAQQTTETTEVKENNKEEKVEKDAQVSANKTEEKEGEKEKTVTQEEAQKAEPEKSEAVVDAKVEPQKNNEQAPKQEEPAAASAPAASSEAPKTSEPSSDAKASQPSEATAPSKADDKSKEEGEAKKTEAPATPAAQETKSEVAPASDSKPSSSEAAPSSKETVAATAAPSSTAKASDPSAPPEEAKPSEAPATNSDQTIAVQD
Turning to B1, the binding result is “binds”.
